For two compounds, IC50 results are on record in patent US5112845A, “Alpha-heterocycle substituted tolunitriles” (Ciba-Geigy Corporation, priority 1990, dated 1992).

Counter-ions that a name gives are not always drawn.

In the experiment the target is T1, aromatase (Homo sapiens, UniProt P11511).
T1 construct: A microsomal fraction is prepared from human placenta by the method essentially as described by Thompson and Siiteri; from tissue; host or cells: human placenta, microsomal fraction (lyophilized)
T1 sequence (P11511 1-503): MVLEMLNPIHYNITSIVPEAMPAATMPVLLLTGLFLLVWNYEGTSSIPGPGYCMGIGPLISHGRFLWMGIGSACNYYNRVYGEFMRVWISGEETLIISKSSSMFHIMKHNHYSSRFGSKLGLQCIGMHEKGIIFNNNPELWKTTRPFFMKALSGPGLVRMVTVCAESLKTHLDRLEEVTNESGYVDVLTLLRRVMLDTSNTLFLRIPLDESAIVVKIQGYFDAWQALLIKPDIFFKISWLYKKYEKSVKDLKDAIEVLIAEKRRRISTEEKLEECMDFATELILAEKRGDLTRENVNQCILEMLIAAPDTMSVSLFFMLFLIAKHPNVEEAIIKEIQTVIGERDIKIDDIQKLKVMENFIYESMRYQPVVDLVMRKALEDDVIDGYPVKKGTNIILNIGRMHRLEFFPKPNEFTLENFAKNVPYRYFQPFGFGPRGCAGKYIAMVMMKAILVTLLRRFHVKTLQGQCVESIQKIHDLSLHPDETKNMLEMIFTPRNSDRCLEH
Briefly: in vitro inhibition of aromatase activity (human placental microsomes, aromatization of [1,2-^3 H]-androstenedione). Format: biochemical. The following applies: 20 minutes at 37° C. As for the experimental part:
The microsomal preparation so obtained is lyophilized and stored at -40° C.
The assay is conducted substantially as described by Thompson and Siiteri. The human placental microsomes are added to [1,2-^3 H]-androstenedioneand incubated for 20 minutes at 37° C. The amount of aromatization of the labelled substrate is detected by the […] of ^3 H2 O into the incubation medium. The substrate is removed by chloroform extraction, followed by adsorption to charcoal in suspension. The charcoal is removed by centrifugation and the steroid-free medium is counted in a liquid scintillation counter. Compounds are tested for aromatase inhibitory activity by adding them to the incubation medium prior to the addition of the microsomes. The relative cpm obtained with and without the inhibitor is used to calculate the percent inhibition of the aromatization of androstenedione to estrone.

The compound `N#Cc1ccc(Cn2ccnc2)cc1` [Example 1a, 4-(1-imidazolylmethyl)-benzonitrile] had a half-maximal inhibitory concentration (IC50) of about 10 nM.

In turn, `N#Cc1ccc(Cn2ccnc2)c2ccccc12` [Example 1c, 4-(1-imidazolylmethyl)-1-naphthonitrile hydrochloride] registered an IC50 of about 1.5 nM.
